For eight targets, log2 fold change results are on record in the supplement of paper PMC10849652.

Chains of the proteins cited; added tags and fusions are not shown. Lines headed by an entry give the natural chain unless they say otherwise; changes in a name come on top.
UniProt O15027: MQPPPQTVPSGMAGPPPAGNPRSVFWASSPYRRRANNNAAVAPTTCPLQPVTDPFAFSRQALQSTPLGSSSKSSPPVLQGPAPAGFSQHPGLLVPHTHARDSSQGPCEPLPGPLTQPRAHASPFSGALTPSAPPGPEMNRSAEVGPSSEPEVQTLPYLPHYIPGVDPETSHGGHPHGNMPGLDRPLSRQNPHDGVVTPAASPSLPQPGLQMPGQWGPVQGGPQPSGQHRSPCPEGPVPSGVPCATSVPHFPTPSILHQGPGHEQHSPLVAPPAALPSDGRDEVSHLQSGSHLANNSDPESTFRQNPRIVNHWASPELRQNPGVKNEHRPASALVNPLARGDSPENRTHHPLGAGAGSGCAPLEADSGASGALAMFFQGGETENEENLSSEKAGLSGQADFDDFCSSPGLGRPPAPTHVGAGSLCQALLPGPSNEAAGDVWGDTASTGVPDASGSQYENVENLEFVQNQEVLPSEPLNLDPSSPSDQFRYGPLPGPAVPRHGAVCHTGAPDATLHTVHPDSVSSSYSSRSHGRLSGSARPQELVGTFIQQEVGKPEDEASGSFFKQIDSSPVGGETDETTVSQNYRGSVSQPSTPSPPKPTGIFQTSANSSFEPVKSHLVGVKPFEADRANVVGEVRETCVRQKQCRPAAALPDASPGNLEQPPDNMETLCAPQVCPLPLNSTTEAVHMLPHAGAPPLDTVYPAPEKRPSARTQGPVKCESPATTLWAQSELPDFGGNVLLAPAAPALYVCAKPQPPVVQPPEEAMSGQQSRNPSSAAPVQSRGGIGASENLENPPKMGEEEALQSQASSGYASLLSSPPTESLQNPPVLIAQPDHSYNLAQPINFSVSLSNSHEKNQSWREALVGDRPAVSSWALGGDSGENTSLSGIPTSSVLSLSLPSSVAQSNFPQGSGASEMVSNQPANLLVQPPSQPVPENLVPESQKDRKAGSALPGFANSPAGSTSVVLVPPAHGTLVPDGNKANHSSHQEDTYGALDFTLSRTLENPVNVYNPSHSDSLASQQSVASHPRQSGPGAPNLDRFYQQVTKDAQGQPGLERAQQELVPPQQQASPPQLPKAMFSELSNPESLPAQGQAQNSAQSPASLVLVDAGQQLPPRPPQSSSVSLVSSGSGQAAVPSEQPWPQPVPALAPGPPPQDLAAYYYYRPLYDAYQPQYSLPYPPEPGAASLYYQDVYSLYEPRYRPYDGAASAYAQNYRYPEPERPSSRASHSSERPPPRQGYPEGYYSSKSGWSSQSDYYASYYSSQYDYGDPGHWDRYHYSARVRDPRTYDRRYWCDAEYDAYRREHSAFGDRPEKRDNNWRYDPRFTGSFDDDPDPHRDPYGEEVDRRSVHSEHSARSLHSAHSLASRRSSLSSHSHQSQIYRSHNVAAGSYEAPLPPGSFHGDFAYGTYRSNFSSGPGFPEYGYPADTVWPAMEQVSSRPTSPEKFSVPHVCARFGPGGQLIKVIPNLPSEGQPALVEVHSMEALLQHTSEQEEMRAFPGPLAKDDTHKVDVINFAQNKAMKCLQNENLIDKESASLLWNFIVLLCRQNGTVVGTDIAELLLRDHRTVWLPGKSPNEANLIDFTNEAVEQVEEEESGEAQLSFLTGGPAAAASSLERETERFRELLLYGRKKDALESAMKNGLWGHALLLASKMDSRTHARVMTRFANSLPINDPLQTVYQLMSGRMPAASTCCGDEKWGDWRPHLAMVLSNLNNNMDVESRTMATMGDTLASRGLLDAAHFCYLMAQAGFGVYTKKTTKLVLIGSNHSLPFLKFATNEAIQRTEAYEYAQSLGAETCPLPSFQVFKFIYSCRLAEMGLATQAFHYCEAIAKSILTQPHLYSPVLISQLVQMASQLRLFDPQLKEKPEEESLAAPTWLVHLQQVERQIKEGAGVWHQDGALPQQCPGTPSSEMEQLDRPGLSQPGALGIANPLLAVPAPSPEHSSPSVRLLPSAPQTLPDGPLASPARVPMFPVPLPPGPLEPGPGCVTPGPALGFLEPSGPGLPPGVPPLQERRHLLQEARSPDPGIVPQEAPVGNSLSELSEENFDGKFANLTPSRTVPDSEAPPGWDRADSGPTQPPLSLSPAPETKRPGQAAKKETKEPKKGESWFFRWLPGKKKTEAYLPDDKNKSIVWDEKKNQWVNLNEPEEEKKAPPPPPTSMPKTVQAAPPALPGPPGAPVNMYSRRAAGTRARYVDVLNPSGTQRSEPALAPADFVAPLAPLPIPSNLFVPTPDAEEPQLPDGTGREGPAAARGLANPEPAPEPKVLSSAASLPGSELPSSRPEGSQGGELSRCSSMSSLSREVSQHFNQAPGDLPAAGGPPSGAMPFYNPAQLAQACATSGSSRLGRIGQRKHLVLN
UniProt Q9NX18: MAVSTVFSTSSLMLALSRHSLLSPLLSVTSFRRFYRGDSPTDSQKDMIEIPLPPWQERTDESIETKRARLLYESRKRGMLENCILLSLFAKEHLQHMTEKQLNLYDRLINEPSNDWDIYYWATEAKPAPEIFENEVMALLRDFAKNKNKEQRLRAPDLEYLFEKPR
UniProt Q9HB40: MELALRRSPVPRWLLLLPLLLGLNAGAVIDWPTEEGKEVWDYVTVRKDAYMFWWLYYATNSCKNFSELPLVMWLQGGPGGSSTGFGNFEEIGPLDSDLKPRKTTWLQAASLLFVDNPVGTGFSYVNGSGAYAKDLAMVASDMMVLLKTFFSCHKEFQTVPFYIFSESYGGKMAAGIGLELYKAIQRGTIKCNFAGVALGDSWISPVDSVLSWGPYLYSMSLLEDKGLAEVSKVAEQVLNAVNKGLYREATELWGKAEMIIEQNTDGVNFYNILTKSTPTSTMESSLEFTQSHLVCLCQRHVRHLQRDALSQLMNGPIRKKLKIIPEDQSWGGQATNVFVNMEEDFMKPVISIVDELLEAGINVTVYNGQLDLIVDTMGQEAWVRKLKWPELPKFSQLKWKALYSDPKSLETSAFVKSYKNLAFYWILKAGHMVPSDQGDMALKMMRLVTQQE
UniProt Q9Y3A4: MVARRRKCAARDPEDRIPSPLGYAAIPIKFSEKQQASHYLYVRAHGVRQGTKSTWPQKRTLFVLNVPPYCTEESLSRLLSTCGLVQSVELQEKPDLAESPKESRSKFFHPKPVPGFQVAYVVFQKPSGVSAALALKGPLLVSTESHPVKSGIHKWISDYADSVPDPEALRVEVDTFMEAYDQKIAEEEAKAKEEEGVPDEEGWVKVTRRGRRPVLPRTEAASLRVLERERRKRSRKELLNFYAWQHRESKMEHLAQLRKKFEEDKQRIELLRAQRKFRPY
UniProt Q7L4I2: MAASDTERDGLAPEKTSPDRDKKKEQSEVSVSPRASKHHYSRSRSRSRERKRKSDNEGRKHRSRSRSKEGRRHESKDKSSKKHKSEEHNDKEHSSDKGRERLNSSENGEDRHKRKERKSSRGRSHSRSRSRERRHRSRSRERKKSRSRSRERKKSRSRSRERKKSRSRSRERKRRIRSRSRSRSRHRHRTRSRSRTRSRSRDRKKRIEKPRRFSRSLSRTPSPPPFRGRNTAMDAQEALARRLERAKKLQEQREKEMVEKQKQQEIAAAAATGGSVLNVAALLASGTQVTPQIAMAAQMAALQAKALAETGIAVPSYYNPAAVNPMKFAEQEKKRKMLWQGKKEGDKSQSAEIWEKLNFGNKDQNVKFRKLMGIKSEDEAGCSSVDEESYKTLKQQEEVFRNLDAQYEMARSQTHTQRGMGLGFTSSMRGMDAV
UniProt Q96BU1: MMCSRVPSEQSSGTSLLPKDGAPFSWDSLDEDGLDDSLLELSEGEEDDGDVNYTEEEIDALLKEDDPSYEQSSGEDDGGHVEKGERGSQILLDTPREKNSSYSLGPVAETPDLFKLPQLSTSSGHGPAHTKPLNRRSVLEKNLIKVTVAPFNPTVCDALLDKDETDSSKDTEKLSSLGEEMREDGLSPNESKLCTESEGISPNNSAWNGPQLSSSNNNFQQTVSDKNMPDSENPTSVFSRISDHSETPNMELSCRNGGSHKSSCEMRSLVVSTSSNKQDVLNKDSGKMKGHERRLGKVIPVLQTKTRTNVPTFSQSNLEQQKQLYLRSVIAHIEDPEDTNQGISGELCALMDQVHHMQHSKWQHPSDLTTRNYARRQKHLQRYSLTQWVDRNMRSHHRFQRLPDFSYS
UniProt Q8WXD2: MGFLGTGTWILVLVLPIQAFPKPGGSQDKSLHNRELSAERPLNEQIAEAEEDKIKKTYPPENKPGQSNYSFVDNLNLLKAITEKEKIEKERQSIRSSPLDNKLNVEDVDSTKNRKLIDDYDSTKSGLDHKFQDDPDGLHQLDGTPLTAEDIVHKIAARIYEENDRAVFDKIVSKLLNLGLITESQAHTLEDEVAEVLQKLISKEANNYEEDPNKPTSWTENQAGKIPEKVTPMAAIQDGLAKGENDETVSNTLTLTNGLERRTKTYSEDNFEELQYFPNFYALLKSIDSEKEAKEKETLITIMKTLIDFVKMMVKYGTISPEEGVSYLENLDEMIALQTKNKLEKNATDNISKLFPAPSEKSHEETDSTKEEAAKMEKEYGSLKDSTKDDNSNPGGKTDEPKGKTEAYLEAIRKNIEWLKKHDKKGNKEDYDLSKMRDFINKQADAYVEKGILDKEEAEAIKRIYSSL
UniProt O00560: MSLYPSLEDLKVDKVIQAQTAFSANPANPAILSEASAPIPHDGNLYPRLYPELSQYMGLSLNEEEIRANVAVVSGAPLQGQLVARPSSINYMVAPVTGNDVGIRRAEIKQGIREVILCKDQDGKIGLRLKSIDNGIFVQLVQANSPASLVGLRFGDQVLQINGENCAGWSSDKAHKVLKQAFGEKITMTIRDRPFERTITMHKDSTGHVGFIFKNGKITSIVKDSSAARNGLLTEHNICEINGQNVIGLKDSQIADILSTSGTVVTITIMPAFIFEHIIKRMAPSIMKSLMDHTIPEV

This is one part of the list.

Common to all, as to assay: log2 fold change, soluble protein after heating vs DMSO (PISA); higher = thermal stabilisation; K562 cells, 10 uM, 30 min; active = over 0.2 and 3.5 SD of the protein, either way, in both replicates (recomputed)
Compound in test [1]: CC1=C(C=C(C=C1)NC(=O)C2=CC(=CC=C2)C(C)(C)C#N)NC3=CC4=C(C=C3)N=CN(C4=O)C
A digest of the protocol:
(§1)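 Quantification of soluble protein used TMTpro 16plex LC-MS/MS, with channel sums equalised. Samples were the supernatant after 21,000xg for 90 min of pooled aliquots from K562 cells (2×10^6 cells/mL) treated with 10 μM compound for 30 min, heated for 3 min over 48°C-58°C, and extracted in PBS with 0.5% NP-40 at 4°C. Values, from duplicates, describe thermal stability against control samples on a log2 fold-change scale.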

Compound in test [2]: CC1=C(C=C(C=C1)NC(=O)C2=CC(=CC=C2)N(C)C)NC(=O)C3=CC=C(C=C3)O
A digest of the protocol: as §1

Compound in test [3]: CC1=CC=C(C=C1)SC2=C3C=C(SC3=CN=C2)C(=O)N
In outline: as §1

Compound in test [4]: CC1=NC(=CC=C1)C2=C(N=C(N2)C(C)(C)C)C3=CC4=NC=CN=C4C=C3
In outline:
as §1

Compound in a further test: CCCCN(Cc1ccc(C(=O)NO)cc1)C(=O)Nc1ccccc1 [Nexturastat A]
A digest of the protocol: as §1

Compound in another test: CCCS(=O)(=O)Nc1ccc(F)c(C(=O)c2c[nH]c3ncc(-c4ccc(Cl)cc4)cc23)c1F [vemurafenib]
A digest of the protocol: as §1

Compound in test [5]: CCCS(=O)(=O)Nc1ccc(F)c(C(=O)c2c[nH]c3ncc(Cl)cc23)c1F
In outline: as §1

Compound in test [6]: CCCc1cc(C)[nH]c(=O)c1CNC(=O)c1cc(-c2ccnc(N3CCN(C)CC3)c2)cc2c1cnn2C(C)C
A digest of the protocol: as §1

Compound in the next test: CCN(CC)Cc1ccc2cc(COC(=O)Nc3ccc(C(=O)NO)cc3)ccc2c1 [givinostat]
In outline: as §1

Compound in another test: CCN(CCCOc1ccc2c(Nc3cc(CC(=O)Nc4cccc(F)c4)[nH]n3)ncnc2c1)CCOP(=O)(O)O [barasertib]
A digest of the protocol:
as §1

Compound in test [7]: CC[C@@H]1C(=O)N(C)c2cnc(Nc3ccc(C(=O)NC4CCN(C)CC4)cc3OC)nc2N1C1CCCC1
A digest of the protocol: as §1

Compound in a further test: CC[C@@H]1C(=O)N(C)c2cnc(Nc3ccc(C(=O)N[C@H]4CC[C@H](N5CCN(CC6CC6)CC5)CC4)cc3OC)nc2N1C(C)C [volasertib]
In outline:
as §1

Compound in test [8]: CC[C@H](C)N1C=C(C2=C(C=C(C=C21)C3=CN=C(C=C3)N4CCNCC4)C(=O)NCC5=C(C=C(NC5=O)C)C)C
In outline:
as §1

Compound in the next test: CC[C@H](C)[C@@H](C(=O)N[C@@H]([C@@H](C)O)C(=O)N[C@@H](CC(C)C)C(=O)[C@]1(CO1)C)NC(=O)[C@H]([C@@H](C)CC)N(C)C(=O)C [epoxomicin]
A digest of the protocol: as §1

Compound in test [9]: CCn1cc(-c2ccnc3[nH]c(-c4cccc(CN(C)C)c4)cc23)c(-c2ccc(NC(=O)N(C)C)cc2)n1
In outline:
as §1

Compound in test [10]: CN(C)CC(=O)Nc1ccc2[nH]c(=O)c3ccccc3c2c1
In outline: as §1

Compound in test [11]: CN1C2=C(C3=C1C(=O)N(N=C3)CC4=CC(=CC=C4)N)SC(=C2)S(=O)C
In outline:
as §1

Compound in test [12]: CN1CCC(CNc2ccc3ncc(-c4cccc(OC(F)(F)F)c4)n3n2)CC1
In outline: as §1

Compound in test [13]: CCn1c(C(=O)N(C2CC2)C2CC2)cc2c3c(ncn3C)c(Nc3cc(C)n(C)n3)nc21
A digest of the protocol: as §1

Compound in a further test: CN(CCOC1=CC=C(C=C1)C[C@H]2C(=O)NC(=O)S2)C3=CC=CC=N3 (racemic) [rosiglitazone]
In outline: as §1

On to SEC16A isoform 5 (UniProt O15027), for which the log2 fold change is inactive: -0.079 in test [1]; inactive: -0.042 in [2]; inactive: 0.036 in test [3]; inactive: -0.001 in test [4]; inactive: 0.044 with Nexturastat A; inactive: 0.035 with vemurafenib. The log2 fold change in test [5] was inactive: -0.031; in [6], inactive: 0.061; in the test with givinostat, inactive: 0.09; with barasertib, inactive: 0.043; in [7], inactive: -0.058; in the test with volasertib, inactive: -0.271. For the same target, the log2 fold change was inactive: 0.051 in test [8]; inactive: -0.04 with epoxomicin; inactive: -0.048 in test [9]; inactive: 0.1 in test [10]; inactive: 0.078 in test [11]; inactive: -0.047 in test [12].

As for SDHAF2 (UniProt Q9NX18), the log2 fold change in [1] was inactive: -0.047; in test [2], inactive: 0.026; in test [3], inactive: 0.079; in test [4], inactive: 0.019; in the test with Nexturastat A, inactive: 0.076; in the test with vemurafenib it was inactive: 0.028. For the same target, the log2 fold change in [5] was inactive: -0.024; in test [6] it was inactive: -0.06; with givinostat, inactive: 0.036; in the test with barasertib, inactive: 0.005; in [7], inactive: 0.089; in the test with volasertib it was inactive: 0.093. The log2 fold change is inactive: -0.081 in test [8]; inactive: -0.057 in the test with epoxomicin; inactive: 0.06 in test [9]; inactive: -0.004 in test [10]; inactive: 0.037 in test [11]; inactive: 0.045 in test [12].

For SCPEP1 (UniProt Q9HB40), the log2 fold change in test [1] was inactive: -0.003; in [2], inactive: 0.016; in test [3] it was inactive: 0.05; in test [4], inactive: 0.022; with Nexturastat A it was inactive: -0.035; in the test with vemurafenib, inactive: 0.002. In addition, the log2 fold change in test [5] was inactive: 0.013; in [6] it was inactive: -0.028; with givinostat, inactive: -0.031; with barasertib, inactive: 0.012; in test [7], active: -0.608; with volasertib, active: -1.44. The log2 fold change in test [8] is inactive: -0.022; in the test with epoxomicin, inactive: 0.044; in test [9], inactive: -0.095; in [10] it was inactive: -0.001; in test [11], inactive: 0.019; in [12], active: -0.846.

Consider RRP7A (UniProt Q9Y3A4), for which the log2 fold change in [1] was inactive: -0.03; in test [2], inactive: -0.067; in test [3], inactive: -0.157; in test [4], inactive: 0.035; with Nexturastat A, inactive: 0.313; with vemurafenib it was inactive: 0.072. For the same target, the log2 fold change in [5] was inactive: -0.125; in test [6], inactive: -0.039; in the test with givinostat it was inactive: 0.092; in the test with barasertib it was inactive: 0.014; in test [7], inactive: -0.018; with volasertib it was inactive: 0.12. Besides, the log2 fold change in test [8] was inactive: 0.007; with epoxomicin it was inactive: -0.066; in test [13], inactive: 0.09; in [10], inactive: -0.047; in the test with rosiglitazone, inactive: 0.022.

For the target RSRC2 (UniProt Q7L4I2), the log2 fold change in [1] was inactive: -0.048; in [2], inactive: 0.04; in test [3] it was inactive: -0.058; in [4], inactive: 0; in the test with Nexturastat A, inactive: 0.015; with vemurafenib it was inactive: 0.007. The log2 fold change in test [5] is inactive: 0.003; in test [6] it was inactive: -0.063; with givinostat it was inactive: -0.013; with barasertib, inactive: 0.01; in test [7], inactive: 0.003; in the test with volasertib, inactive: -0.032. Moreover, the log2 fold change was inactive: -0.022 in test [8]; inactive: 0.031 with epoxomicin; inactive: -0.043 in test [9]; inactive: 0.007 in test [10]; inactive: -0.028 in [11]; inactive: -0.025 in test [12].

For S100PBP (UniProt Q96BU1), the log2 fold change was inactive: -0.097 in [1]; inactive: -0.003 in test [2]; inactive: -0.147 in [3]; inactive: -0.003 in [4]; inactive: -0.06 in the test with Nexturastat A; inactive: 0.125 in the test with vemurafenib. Further, the log2 fold change in test [5] was inactive: 0.125; in [6] it was inactive: -0.064; with givinostat, inactive: 0.021; with barasertib, inactive: 0.104; in [7], inactive: -0.027; with volasertib, inactive: 0.011. Moreover, the log2 fold change in test [8] was inactive: 0.01; with epoxomicin it was inactive: 0.113; in test [13], inactive: 0.053; in test [9] it was inactive: 0.047; in test [10], inactive: 0.029; with rosiglitazone, inactive: 0.062. Further, the log2 fold change in test [12] was inactive: 0.073.

On to SCG3 (UniProt Q8WXD2), for which the log2 fold change in test [1] was inactive: 0.134; in test [2], inactive: -0.105; in test [3], inactive: -0.011; in test [4] it was inactive: -0.05; in the test with Nexturastat A, inactive: -0.071; in the test with vemurafenib, inactive: 0.027. Also, the log2 fold change in [5] was inactive: -0.041; in test [6], inactive: 0.11; with givinostat, inactive: -0.043; with barasertib it was inactive: 0.013; in [7], inactive: 0.04; in the test with volasertib it was inactive: 0.134. Besides, the log2 fold change was inactive: -0.013 in test [8]; inactive: -0.119 with epoxomicin; inactive: 0.035 in test [9]; inactive: -0.099 in [10]; inactive: -0.116 in test [11]; active: 0.6 in test [12].

As to SDCBP (UniProt O00560), the log2 fold change in [1] is inactive: 0.007; in [2], inactive: 0.021; in test [3], inactive: 0.009; in test [4], inactive: 0.025; in the test with Nexturastat A it was inactive: 0.001; with vemurafenib, inactive: 0.051. Besides, the log2 fold change is inactive: 0.041 in test [5]; inactive: -0.176 in test [6]; inactive: -0.027 with givinostat; inactive: -0.039 with barasertib; inactive: -0.223 in test [7]; inactive: -0.249 with volasertib. Further, the log2 fold change in test [8] is inactive: 0.01; with epoxomicin, inactive: -0.043; in test [9] it was inactive: -0.01; in test [10], inactive: -0.061; in [11] it was inactive: 0.045; in [12] it was inactive: -0.229.
